Measurements published in doi:10.1101/2021.12.08.471779.
Changes are numbered by the printed parent chain. No constants are given. Whether binding was seen depends on the method and setting. Binding seen in cells or lysates may run through a third protein. Some entries that bind do so weakly or less than the wild type.

The chains behind the UniProt entries cited, without tags or fusion partners. Where a name states a change or a piece, a line headed by the entry shows the natural chain unless it says otherwise.
UniProt P02929, whole entry, looked up, stated change not applied: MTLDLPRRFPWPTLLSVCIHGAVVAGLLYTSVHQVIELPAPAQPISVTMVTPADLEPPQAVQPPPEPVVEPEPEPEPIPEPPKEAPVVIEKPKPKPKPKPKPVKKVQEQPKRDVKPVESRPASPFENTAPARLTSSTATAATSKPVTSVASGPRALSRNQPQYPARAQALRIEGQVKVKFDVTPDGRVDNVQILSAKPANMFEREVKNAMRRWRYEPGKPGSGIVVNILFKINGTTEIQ

Assays:
Test in all cases: cross-linking
[1] = biological target: T1, FepA A42C (Escherichia coli K-12) (UniProt P05825)
T1 sequence: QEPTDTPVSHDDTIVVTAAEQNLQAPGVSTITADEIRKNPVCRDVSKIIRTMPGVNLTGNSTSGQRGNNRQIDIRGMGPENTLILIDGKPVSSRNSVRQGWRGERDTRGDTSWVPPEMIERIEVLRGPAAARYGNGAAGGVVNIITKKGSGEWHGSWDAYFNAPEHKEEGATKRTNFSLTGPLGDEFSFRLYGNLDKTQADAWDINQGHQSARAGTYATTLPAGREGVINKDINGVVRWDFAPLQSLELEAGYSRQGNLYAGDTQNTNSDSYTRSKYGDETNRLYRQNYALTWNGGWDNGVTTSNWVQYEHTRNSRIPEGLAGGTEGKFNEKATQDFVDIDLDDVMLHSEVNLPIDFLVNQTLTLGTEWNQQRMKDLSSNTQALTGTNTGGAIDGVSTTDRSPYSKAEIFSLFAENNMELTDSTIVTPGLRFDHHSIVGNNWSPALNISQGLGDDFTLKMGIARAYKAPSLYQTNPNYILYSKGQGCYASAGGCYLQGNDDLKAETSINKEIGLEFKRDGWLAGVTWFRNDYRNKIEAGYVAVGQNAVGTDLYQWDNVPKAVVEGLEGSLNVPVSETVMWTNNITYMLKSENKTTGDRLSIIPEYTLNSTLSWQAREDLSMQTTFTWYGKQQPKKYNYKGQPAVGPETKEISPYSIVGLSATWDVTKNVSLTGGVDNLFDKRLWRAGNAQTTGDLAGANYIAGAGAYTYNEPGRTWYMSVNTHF

[2] = biological target: T2, FepA P243C (Escherichia coli K-12) (UniProt P05825)
T2 sequence: T1 sequence with C42A, P243C

[3] = biological target: T3, FepA V16C (Escherichia coli K-12) (UniProt P05825)
T3 sequence: T1 sequence with V16C, C42A

Substance	binding [1]	binding [2]	binding [3]
TonB C18G A209C (from UniProt P02929 1-239)	no binding	no binding	no binding
TonB C18G H20A Q160C (from UniProt P02929 1-239)	no binding		binds
TonB C18G H20A N208C (from UniProt P02929 1-239)			no binding
TonB C18G H20A V206C (from UniProt P02929 1-239)			no binding
TonB C18G H20A R212C (from UniProt P02929 1-239)			no binding
TonB C18G R214C (from UniProt P02929 1-239)	no binding		
TonB C18G H20A R204C (from UniProt P02929 1-239)		binds	no binding
TonB C18G R204C (from UniProt P02929 1-239)	no binding	binds	binds
TonB C18G H20A A209C (from UniProt P02929 1-239)			no binding
TonB C18G R212C (from UniProt P02929 1-239)	no binding	binds	binds
TonB C18G M201C (from UniProt P02929 1-239)	no binding		
TonB C18G N208C (from UniProt P02929 1-239)	no binding	binds weakly	binds
TonB C18G Q160C (from UniProt P02929 1-239)	binds	no binding	binds
TonB C18G V206C (from UniProt P02929 1-239)	no binding	no binding	no binding
